In patent US12564206B2, “Multi-supplement food-additive” (THE GOVERNING COUNCIL OF THE UNIVERSITY OF TORONTO, priority 2019, dated 2026):
Some of these results come from one statement about several compounds together.

Key:
[1] = Earlier folic acid and iodine spray solutions, storage stability; type: physicochemical; details: pH 9 carbonate/bicarbonate buffer, 1%-2% w/v folic acid, 1%-3% w/v iodine (as KlO3); 5 months storage at 25 and 45 degrees C
[2] = Stability of folic acid and iodine in fortified salt on storage; details: QFS with B12 in contact vs physically separated
Procedure: However, for comparative study, a solution containing folic acid, iodine and vitamin B12 (spray solution 2 in Table 1) was also used. The solutions (2.5 mL) were sprayed on salt (1 kg) inside a ribbon blender and thoroughly mixed for 20 minutes. The salt samples were dried overnight. The dried salt was returned to the ribbon blender and mixed with premix samples for 2 minutes. Iron premix (i.e. particles containing iron without any B12 or other fortificants) and three of the four iron-B12 premixes were used (adding B12 to TiO2 was not further tested). The target concentrations of the fortificants were 1000 microgram/gram iron, 50 microgram/gram iodine, 25 microgram/gram folic acid and 0.25 microgram/gram vitamin B12.
The fortified salts were divided by solid sample splitter glassware into three portions. […] The stability of folic acid and iodine in the salt was monitored over a period of six months.
Folic Acid Analysis: For the spray solution, samples were diluted with 0.1 M Na2CO3 at ratio 1:1000 v/v and the absorbance of the resulting solution was read at 285 nm. […] The absorbance of the filtrate was immediately read at 285 nm.
Iodine Analysis: Method 33.149, described by the Association of Official Analytical Chemists (AOAC), was used for iodine quantification in salt and spray solutions (Association of Official Analytical Chemists, 1984). […]

With `Nc1nc2ncc(CNc3ccc(C(=O)N[C@@H](CCC(=O)O)C(=O)O)cc3)nc2c(=O)[nH]1` [folic acid] the “micronutrient retained in spray solution” value [1] was ≥ 80% and the “loss associated with vitamin B12 interaction in QFS” value [2] was 10-20%.
